Data on 24 compounds can be found in the supplement of paper PMC4604168 (melanoma cell lines).

Common to all, as to test: cleaved PARP positive nuclei fraction relative to DMSO control; melanoma cells; higher = more apoptosis
What all share (conditions): library dose: low library concentration; 72 h

Test [1] concerns WM115.
The test system of test [2] is WM1716.
Test [3] relates to WM1745.
Test [4] deals with WM3526.
The subject of test [5] is WM3619.
Test [6] has as its system WM451Lu.

Structures are written as SMILES. Some of the results follow. Single values are uncertain, as repeats are few or missing.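 Imaging used 1,536-well plates; nuclei positive for cleaved PARP by antibody were divided by total DNA-stained nuclei to yield the apoptosis fraction. Doses for screening kept most cells viable, and cell lines differ markedly in resting and induced cleaved-PARP levels.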

Consider `O=C(Nc1cccc(Cl)c1)Nc1ncc(CCNc2ncnc3ccsc23)s1` + NCC(=O)Nc1ccc(-n2nc(C(F)(F)F)cc2-c2ccc3c(ccc4ccccc43)c2)cc1 [OSU03012] (first compound 0.0008 µM, partner dose 1 µM), for which the “cleaved PARP positive nuclei fraction” value worked out at 285% in test [1]; 109% in test [2]; 112% in test [3]; 92.7% in test [4]; 114% in test [5]; 139% in test [6].
Regarding `CC(=O)c1c(C)c2cnc(Nc3ccc(N4CCNCC4)cn3)nc2n(C2CCCC2)c1=O` [palbociclib] + CCN(CC)CCCCNc1ncc2cc(-c3cc(OC)cc(OC)c3)c(NC(=O)NC(C)(C)C)nc2n1 [PD173074] (first compound 0.04 µM, partner dose 0.1 µM), the “cleaved PARP positive nuclei fraction” value in test [1] stood at 131%; in test [2], 148%; in test [3] it was 124%; in test [4], 110%; in test [5], 134%; in test [6], 59.1%.
With `C=CCn1c(=O)c2cnc(Nc3ccc(N4CCN(C)CC4)cc3)nc2n1-c1cccc(C(C)(C)O)n1` + O=S(=O)(c1ccccc1)N(CC(F)(F)F)c1ccc(C(O)(C(F)(F)F)C(F)(F)F)cc1 [T0901317] (first compound 0.02 µM, partner dose 1.4 µM), the “cleaved PARP positive nuclei fraction” value came to 81.2% in test [1]; 236% in test [2]; 159% in test [3]; 201% in test [4]; 118% in test [5]; 79.3% in test [6].
With `Cc1nc(Nc2ncc(C(=O)Nc3c(C)cccc3Cl)s2)cc(N2CCN(CCO)CC2)n1` [dasatanib] + Cc1ccc(NC(=O)c2cccc(N(C)C)c2)cc1NC(=O)c1ccc(O)cc1 [ZM336372] (first compound 0.004 µM, partner dose 2 µM), the “cleaved PARP positive nuclei fraction” value in test [1] turned out to be 47.7%; in test [2] it was 177%; in test [3], 126%; in test [4], 112%; in test [5], 92.4%; in test [6], 63%.
With `C=CCn1c(=O)c2cnc(Nc3ccc(N4CCN(C)CC4)cc3)nc2n1-c1cccc(C(C)(C)O)n1` + N#Cc1c(O)c2c(-c3ccc(-c4ccccc4O)cc3)csc2[nH]c1=O [A769662] (first compound 0.02 µM, partner dose 2 µM), the “cleaved PARP positive nuclei fraction” value in test [1] was 221%; in test [2], 42.7%; in test [3] it was 111%; in test [4], 71.3%; in test [5], 121%; in test [6], 70.2%.
Turning to `Cn1nnc2c(C(N)=O)ncn2c1=O` [temozolomide] + CO[C@@H]1[C@H](N(C)C(=O)c2ccccc2)C[C@H]2O[C@]1(C)n1c3ccccc3c3c4c(c5c6ccccc6n2c5c31)C(=O)NC4 [Midostaurin] (first compound 2 µM, partner dose 0.08 µM), the “cleaved PARP positive nuclei fraction” value in test [1] was found to be 107%; in test [2] it was 122%; in test [3] it was 88.3%; in test [4], 68.3%; in test [5], 110%; in test [6] it was 63.5%.
For the compound `COc1cc(Nc2ncc(F)c(Nc3ccc4c(n3)NC(=O)C(C)(C)O4)n2)cc(OC)c1OC` [Tamatinib] + c1cc(-c2cnn3cc(-c4ccc(OCCN5CCCCC5)cc4)cnc23)ccn1 [Dorsomorphin] (first compound 0.4 µM, partner dose 0.4 µM), the “cleaved PARP positive nuclei fraction” value in test [1] came out at 156%; in test [2], 98.4%; in test [3], 196%; in test [4] it was 97.8%; in test [5] it was 88%; in test [6] it was 62.8%.
`C=CCNC1=C2C[C@@H](C)C[C@H](OC)[C@H](O)[C@@H](C)/C=C(\C)[C@H](OC(N)=O)[C@@H](OC)/C=C\C=C(/C)C(=O)NC(=CC1=O)C2=O` [Tanespimycin] + COc1cc(N2CCC(N3CCN(C)CC3)CC2)ccc1Nc1ncc(Cl)c(Nc2ccccc2S(=O)(=O)C(C)C)n1 [NVP-TAE684] (first compound 0.002 µM, partner dose 0.08 µM): the “cleaved PARP positive nuclei fraction” value in test [1] was found to be 249%; in test [2], 206%; in test [3] it was 193%; in test [4], 78.6%; in test [5] it was 106%; in test [6], 77.3%.
As to `CC(C)(C)c1cnc(CSc2cnc(NC(=O)C3CCNCC3)s2)o1` + CN(NC(=O)CC(=O)NN(C)C(=S)c1ccccc1)C(=S)c1ccccc1 [STA4783] (first compound 0.01 µM, partner dose 0.006 µM), the “cleaved PARP positive nuclei fraction” value in test [1] was 127%; in test [2], 98.7%; in test [3] it was 186%; in test [4], 157%; in test [5], 212%; in test [6] it was 218%.
In the case of `CO[C@@H]1[C@H](N(C)C(=O)c2ccccc2)C[C@H]2O[C@]1(C)n1c3ccccc3c3c4c(c5c6ccccc6n2c5c31)C(=O)NC4` [Midostaurin] + O=C(O)c1ccc(-c2c[nH]c3ncc(-c4ccccc4)cc23)cc1C1CCCC1 [GSK650394] (first compound 0.08 µM, partner dose 0.16 µM), the “cleaved PARP positive nuclei fraction” value in test [1] worked out at 36.8%; in test [2], 147%; in test [3], 97.2%; in test [4], 68.4%; in test [5], 94.9%; in test [6], 30.8%.
In the case of `Cn1cncc1[C@@](N)(c1ccc(Cl)cc1)c1ccc2c(c1)c(-c1cccc(Cl)c1)cc(=O)n2C` [tipifarnib] + COc1ccc(-c2ccc3c(N4CCOCC4)nc(N4C[C@@H](C)O[C@@H](C)C4)nc3n2)cc1CO [KU0063794] (first compound 0.01 µM, partner dose 0.02 µM), the “cleaved PARP positive nuclei fraction” value is 133% in test [1]; 57% in test [2]; 109% in test [3]; 75.4% in test [4]; 106% in test [5]; 69.8% in test [6].
Take `O=C(Nc1cccc(Cl)c1)Nc1ncc(CCNc2ncnc3ccsc23)s1` + COc1ccc2c(c1)CCC1C2CCC2(C)C(NCCCCCCN3C(=O)C=CC3=O)CCC12 [U73122] (first compound 0.0008 µM, partner dose 0.4 µM): the “cleaved PARP positive nuclei fraction” value worked out at 114% in test [1]; 77.7% in test [2]; 112% in test [3]; 251% in test [4]; 89.2% in test [5]; 83.5% in test [6].
Turning to `CC1(C)NC(=O)N(c2ccc([N+](=O)[O-])c(C(F)(F)F)c2)C1=O` [nilutamide] + COc1ccc(-c2ccc3c(N4CCOCC4)nc(N4C[C@@H](C)O[C@@H](C)C4)nc3n2)cc1CO [KU0063794] (first compound 1 µM, partner dose 0.02 µM), the “cleaved PARP positive nuclei fraction” value in test [1] was 41.4%; in test [2], 84.4%; in test [3], 100%; in test [4], 131%; in test [5], 78.4%; in test [6] it was 47.9%.
On to `Cc1nc(Nc2ncc(C(=O)Nc3c(C)cccc3Cl)s2)cc(N2CCN(CCO)CC2)n1` [dasatanib] + COc1cc(Nc2ncc(F)c(Nc3ccc4c(n3)NC(=O)C(C)(C)O4)n2)cc(OC)c1OC [Tamatinib] (first compound 0.004 µM, partner dose 0.4 µM), for which the “cleaved PARP positive nuclei fraction” value in test [1] came out at 119%; in test [2], 414%; in test [3], 179%; in test [4], 135%; in test [5] it was 99.1%; in test [6], 124%.
Consider `Cc1ccc(NC(=O)c2cccc(N(C)C)c2)cc1NC(=O)c1ccc(O)cc1` + O=c1cc(-c2cccc3c2Sc2ccccc2S3)oc(N2CCOCC2)c1 [KU55933] (first compound 2 µM, partner dose 1 µM), for which the “cleaved PARP positive nuclei fraction” value in test [1] was 83.7%; in test [2] it was 52.9%; in test [3], 105%; in test [4], 74.2%; in test [5] it was 87.6%; in test [6], 78.2%.
Regarding `CO[C@@H]1[C@H](N(C)C(=O)c2ccccc2)C[C@H]2O[C@]1(C)n1c3ccccc3c3c4c(c5c6ccccc6n2c5c31)C(=O)NC4` [Midostaurin] + O=C1NC(=O)/C(=C/c2ccc(-c3ccc(F)cc3O)o2)S1 [AS252424] (first compound 0.08 µM, partner dose 1 µM), the “cleaved PARP positive nuclei fraction” value in test [1] came out at 165%; in test [2], 105%; in test [3] it was 121%; in test [4] it was 197%; in test [5] it was 189%; in test [6], 193%.
As for `COCC[n+]1c2c(n(Cc3cnccn3)c1C)C(=O)c1ccccc1C2=O` + C=CCn1c(=O)c2cnc(Nc3ccc(N4CCN(C)CC4)cc3)nc2n1-c1cccc(C(C)(C)O)n1 [MK1775] (first compound 0.0004 µM, partner dose 0.02 µM), the “cleaved PARP positive nuclei fraction” value in test [1] is 59.6%; in test [2], 89.9%; in test [3] it was 82.3%; in test [4], 155%; in test [5], 117%; in test [6], 70.6%.
For the compound `C=CCNC1=C2C[C@@H](C)C[C@H](OC)[C@H](O)[C@@H](C)/C=C(\C)[C@H](OC(N)=O)[C@@H](OC)/C=C\C=C(/C)C(=O)NC(=CC1=O)C2=O` [Tanespimycin] + COc1ccc2c(c1)CCC1C2CCC2(C)C(NCCCCCCN3C(=O)C=CC3=O)CCC12 [U73122] (first compound 0.002 µM, partner dose 0.4 µM), the “cleaved PARP positive nuclei fraction” value was found to be 109% in test [1]; 108% in test [2]; 94.4% in test [3]; 75.3% in test [4]; 93.4% in test [5]; 82.6% in test [6].
With `C#Cc1cccc(Nc2ncnc3cc(OCCOC)c(OCCOC)cc23)c1` [erlotinib] + C[C@@H]1CCN(C(=O)CC#N)C[C@@H]1N(C)c1ncnc2[nH]ccc12 [CP690550] (first compound 0.8 µM, partner dose 1 µM), the “cleaved PARP positive nuclei fraction” value in test [1] was 102%; in test [2] it was 151%; in test [3], 219%; in test [4] it was 59.3%; in test [5], 92%; in test [6], 50%.
In the case of `CO[C@@H]1[C@H](N(C)C(=O)c2ccccc2)C[C@H]2O[C@]1(C)n1c3ccccc3c3c4c(c5c6ccccc6n2c5c31)C(=O)NC4` [Midostaurin] + Cc1cc(N2CCOCC2)cc2[nH]c(-c3c(NC[C@@H](O)c4cccc(Cl)c4)cc[nH]c3=O)nc12 [BMS536924] (first compound 0.08 µM, partner dose 0.2 µM), the “cleaved PARP positive nuclei fraction” value stood at 64.2% in test [1]; 181% in test [2]; 114% in test [3]; 16.1% in test [4]; 96.1% in test [5]; 25.1% in test [6].
With `OCCn1cc(-c2cnc3nnn(Cc4ccc5ncccc5c4)c3n2)cn1` + O=C(Nc1ccccc1)c1cc([N+](=O)[O-])ccc1Cl [GW9662] (first compound 1 µM, partner dose 2 µM), the “cleaved PARP positive nuclei fraction” value in test [1] was 444%; in test [2], 104%; in test [3] it was 83.9%; in test [4], 526%; in test [5], 49.8%; in test [6], 77.1%.
Turning to `Clc1ccc(Nc2nnc(Cc3ccncc3)c3ccccc23)cc1` [vatalanib] + Cc1ccc(NC(=O)c2cccc(N(C)C)c2)cc1NC(=O)c1ccc(O)cc1 [ZM336372] (first compound 2 µM, partner dose 2 µM), the “cleaved PARP positive nuclei fraction” value in test [1] was 47.8%; in test [2], 40.5%; in test [3], 105%; in test [4], 50.2%; in test [5] it was 115%; in test [6] it was 102%.
As to `Cn1c(Nc2ccc(C(F)(F)F)cc2)nc2cc(Oc3ccnc(-c4ncc(C(F)(F)F)[nH]4)c3)ccc21` + N#Cc1c(O)c2c(-c3ccc(-c4ccccc4O)cc3)csc2[nH]c1=O [A769662] (first compound 0.08 µM, partner dose 2 µM), the “cleaved PARP positive nuclei fraction” value in test [1] was 373%; in test [2], 63.3%; in test [3] it was 170%; in test [4], 132%; in test [5] it was 86.3%; in test [6], 201%.
On to `NC(=O)Nc1cc(-c2cccc(F)c2)sc1C(=O)N[C@H]1CCCNC1` + COc1ccc(-c2ccc3c(N4CCOCC4)nc(N4C[C@@H](C)O[C@@H](C)C4)nc3n2)cc1CO [KU0063794] (first compound 0.02 µM, partner dose 0.02 µM), for which the “cleaved PARP positive nuclei fraction” value in test [1] amounted to 53.6%; in test [2], 132%; in test [3], 109%; in test [4] it was 86.8%; in test [5] it was 191%; in test [6], 176%.
